Publication doi:10.1101/2024.02.24.581848
No constants are given. Whether binding was seen depends on the method and setting. In cells and extracts the contact can be indirect. Here binding means that the protein was enriched with, or labelled near, the bait; the list need not be complete.

Target: N-terminally FLAG-tagged HigC expressed in the context of the full HigBAC system (E. coli NT1F31)
Assay: affinity purification with mass spectrometry

B1: gpV major tail protein of phage λvir (wild type), made during infection (protein, UniProt P03733 1-246)
chain: MPVPNPTMPVKGAGTTLWVYKGSGDPYANPLSDVDWSRLAKVKDLTPGELTAESYDDSYLDDEDADWTATGQGQKSAGDTSFTLAWMPGEQGQQALLAWFNEGDTRAYKIRFPNGTVDVFRGWVSSIGKAVTAKEVITRTVKVTNVGRPSMAEDRSTVTAATGMTVTPASTSVVKGQSTTLTVAFQPEGVTDKSFRAVSADKTKATVSVSGMTITVNGVAAGKVNIPVVSGNGEFAAVAEITVTAS
binding: binds
